Results reported in PubChem BioAssay AID248 (DTP/NCI, 2004).
The list does not hold the whole screen: it gathers tests that were run many times, whatever their T/C, doses with no T/C, and many T/C values between a quarter and a half above the control. Further doses and runs are listed elsewhere. T/C is the treated group as % of the vehicle group. Some doses have a count of surviving animals in place of a T/C: the source files T/C as zero there, which appears to mark a toxic dose or a test without result, not a measured value. Some doses without a T/C left all or most animals alive at the check, yet need not have been tolerated: survival well below the control is almost never listed, so the zero probably covers shortened survival too. Counts of survivors are from the toxicity check (mostly the fifth day) where no day follows; animals may have died later. Schedule codes are those of the source, taken here to give the interval after Q, in days (D) or hours (H), and the number of doses after X. Some doses were run more than once; the results are listed from low to high. Some schedule codes hold Z or #, which are not explained here. Where survival is the endpoint, this PubChem deposit counts one and a half times the control or more as active, and values a quarter to a half above the control carry no call in these data; other NCI protocols may use other cut-offs. Some T/C values are followed by the survivors on the day toxicity was checked, most often the fifth; without a count, all were alive then.

System: L1210 leukemia ip in BDF1 mice, survival T/C
Experiment: NCI In Vivo Anticancer Drug Screen. Data for tumor model L1210 Leukemia (intraperitoneal) in B6D2F1 (BDF1) mice
Conditions: T/C endpoint: mean survival time, higher T/C = longer survival
[1] = dose: 400.0 mg/kg/injection, schedule: Q01DX001 (ip), vehicle: saline
[2] = dose: 200.0 mg/kg/injection, schedule: Q01DX Z (ip), vehicle: saline
[3] = dose: 12.5 mg/kg/injection, schedule: Q01DX001 (ip), vehicle: carboxymethylcellulose (CMC)
[4] = dose: 25.0 mg/kg/injection, schedule: Q01DX001 (ip), vehicle: carboxymethylcellulose (CMC)
[5] = dose: 50.0 mg/kg/injection, schedule: Q01DX001 (ip), vehicle: carboxymethylcellulose (CMC)

`S=c1nc[nH]c2nc(N=Nc3cc(Cl)ccc3Cl)[nH]c12` was tested, and the survivor count [1] was 3 of 6.

With `CC(C)(C)Nc1ccc(F)cc1` the survivor count (dose: 400.0 mg/kg/injection, schedule: Q04DX002 (ip), vehicle: Klucel (hydroxypropylcellulose) (HPC)) was 0 of 3.

With `S=P(N1CCCCCC1)(N1CC1)N1CC1` the T/C (dose: 50.0 mg/kg/injection, schedule: Q01DX Z (ip), vehicle: saline) was 139 % of control, the survivor count (dose: 100.0 mg/kg/injection, schedule: Q01DX Z (ip), vehicle: saline) was 5 of 6 and the T/C [2] was 131 % of control. The survivor count [2] was 5 of 6, the T/C (dose: 200.0 mg/kg/injection, schedule: Q01DX Z (oral), vehicle: saline) was 130 % of control and the survivor count [1] was 3 of 6. For the same molecule, the T/C (dose: 400.0 mg/kg/injection, schedule: Q01DX006 (iv), vehicle: saline) was 130 % of control, the survivor count (dose: 400.0 mg/kg/injection, schedule: Q01DX Z (ip), vehicle: saline) was 0 of 6 and 2 of 6 and the survivor count (dose: 400.0 mg/kg/injection, schedule: Q01DX Z (oral), vehicle: saline) was 6 of 6. For the same molecule, the survivor count (dose: 1000.0 mg/kg/injection, schedule: Q01DX001 (ip), vehicle: saline) was 6 of 6 and the survivor count (dose: 2000.0 mg/kg/injection, schedule: Q01DX001 (ip), vehicle: saline) was 6 of 6.

In the case of `O=C(O)c1c(Br)c(Br)c(Br)c(Br)c1-c1c2ccc(=O)c(O)c-2oc2c(O)c(O)ccc12`, the survivor count (dose: 200.0 mg/kg/injection, schedule: Q04DX003 (ip), vehicle: saline) is reported as 6 of 6 and the survivor count (dose: 400.0 mg/kg/injection, schedule: Q04DX003 (ip), vehicle: saline) is reported as 3 of 6.

With `Nc1cnccc1Nc1ccncc1` the survivor count (dose: 400.0 mg/kg/injection, schedule: Q04DX003 (ip), vehicle: saline with Tween-80) was 2 of 6.

For `CN(CCO)N=Nc1ccccc1Cl`, the survivor count (dose: 12.5 mg/kg/injection, schedule: Q04DX003 (ip), vehicle: other) was 0 of 6, the survivor count (dose: 25.0 mg/kg/injection, schedule: Q04DX003 (ip), vehicle: other) was 3 of 6 and 6 of 6 and the survivor count (dose: 50.0 mg/kg/injection, schedule: Q04DX003 (ip), vehicle: other) was 0 of 6 and 6 of 6. For the same molecule, the survivor count (dose: 100.0 mg/kg/injection, schedule: Q01DX009 (ip), vehicle: other) was 1 of 6, the survivor count (dose: 100.0 mg/kg/injection, schedule: Q04DX003 (ip), vehicle: other) was 0 of 6 and 6 of 6 and the survivor count (dose: 200.0 mg/kg/injection, schedule: Q01DX009 (ip), vehicle: other) was 0 of 6. The survivor count (dose: 200.0 mg/kg/injection, schedule: Q04DX003 (ip), vehicle: other) was 3 of 6 and the survivor count (dose: 400.0 mg/kg/injection, schedule: Q01DX009 (ip), vehicle: other) was 0 of 6.

With `NC(=S)N/N=C(\c1ccc(Cl)cc1)C1CC1` the survivor count (dose: 15.0 mg/kg/injection, schedule: Q01DX Z (ip), vehicle: carboxymethylcellulose (CMC)) was 0 of 6, the survivor count (dose: 30.0 mg/kg/injection, schedule: Q01DX Z (ip), vehicle: carboxymethylcellulose (CMC)) was 0 of 6 and the survivor count (dose: 30.0 mg/kg/injection, schedule: Q01DX Z (sc), vehicle: carboxymethylcellulose (CMC)) was 2 of 6. For the same molecule, the survivor count (dose: 60.0 mg/kg/injection, schedule: Q01DX Z (ip), vehicle: carboxymethylcellulose (CMC)) was 0 of 6, the survivor count (dose: 60.0 mg/kg/injection, schedule: Q01DX Z (sc), vehicle: carboxymethylcellulose (CMC)) was 0 of 6 and the survivor count (dose: 120.0 mg/kg/injection, schedule: Q01DX Z (ip), vehicle: carboxymethylcellulose (CMC)) was 0 of 6.

In the case of `CC(C)C(=Nc1ccc(Cl)c(Cl)c1)N(C)C`, the survivor count (dose: 100.0 mg/kg/injection, schedule: Q01DX Z (ip), vehicle: methylcellulose (MC)) is reported as 2 of 6.

For `Cc1c(CNc2ccc(C(=O)NC(CC(=O)O)C(=O)O)cc2)ccc2nc(N)nc(N)c12` (configuration not stated), the T/C (dose: 0.12 mg/kg/injection, schedule: Q01DX009 (ip), vehicle: other) was 133 % of control, the survivor count (dose: 0.19 mg/kg/injection, schedule: Q01DX009 (ip), vehicle: carboxymethylcellulose (CMC)) was 6 of 6 and the survivor count (dose: 0.38 mg/kg/injection, schedule: Q01DX009 (ip), vehicle: carboxymethylcellulose (CMC)) was 6 of 6. The survivor count (dose: 0.5 mg/kg/injection, schedule: Q01DX009 (ip), vehicle: other) was 6 of 6, the survivor count (dose: 0.75 mg/kg/injection, schedule: Q01DX009 (ip), vehicle: carboxymethylcellulose (CMC)) was 4 of 6 and the survivor count (dose: 0.75 mg/kg/injection, schedule: Q01DX009 (ip), vehicle: other) was 5 of 6. The survivor count (dose: 1.0 mg/kg/injection, schedule: Q01DX009 (ip), vehicle: other) was 6 of 6, the survivor count (dose: 1.5 mg/kg/injection, schedule: Q01DX009 (ip), vehicle: carboxymethylcellulose (CMC)) was 5 of 6 and the survivor count (dose: 1.5 mg/kg/injection, schedule: Q01DX009 (ip), vehicle: other) was 3 of 6. The T/C (dose: 1.56 mg/kg/injection, schedule: Q01DX001 (ip), vehicle: carboxymethylcellulose (CMC)) was 135 % of control, the T/C (dose: 2.0 mg/kg/injection, schedule: Q02DX005 (ip), vehicle: water) was 127 % of control and the survivor count (dose: 3.0 mg/kg/injection, schedule: Q01DX009 (ip), vehicle: carboxymethylcellulose (CMC)) was 3 of 6. The survivor count (dose: 3.0 mg/kg/injection, schedule: Q01DX009 (ip), vehicle: other) was 1 of 6, the T/C (dose: 3.13 mg/kg/injection, schedule: Q01DX001 (ip), vehicle: carboxymethylcellulose (CMC)) was 139 % of control and the T/C (dose: 3.13 mg/kg/injection, schedule: Q01DX001 (ip), vehicle: other) was 129 % of control. For the same molecule, the survivor count (dose: 6.0 mg/kg/injection, schedule: Q01DX009 (ip), vehicle: carboxymethylcellulose (CMC)) was 3 of 6, the survivor count (dose: 6.0 mg/kg/injection, schedule: Q01DX009 (ip), vehicle: water) was 10 of 10 and the T/C (dose: 6.25 mg/kg/injection, schedule: Q01DX001 (ip), vehicle: carboxymethylcellulose (CMC)) was 146 % of control. For the same molecule, the T/C (dose: 6.25 mg/kg/injection, schedule: Q01DX001 (ip), vehicle: other) was 131 % of control, the survivor count (dose: 9.0 mg/kg/injection, schedule: Q01DX009 (ip), vehicle: water) was 9 of 10 and the survivor count (dose: 12.0 mg/kg/injection, schedule: Q01DX009 (ip), vehicle: carboxymethylcellulose (CMC)) was 2 of 6. For the same molecule, the T/C [3] was 128 and 146 % of control, the survivor count [3] was 1 of 6 and the T/C (dose: 12.5 mg/kg/injection, schedule: Q01DX001 (ip), vehicle: other) was 145 % of control. For the same molecule, the survivor count (dose: 16.0 mg/kg/injection, schedule: Q02DX005 (ip), vehicle: water) was 9 of 9, the T/C [4] was 137 % of control and the survivor count [4] was 2 of 6. For the same molecule, the survivor count (dose: 25.0 mg/kg/injection, schedule: Q01DX001 (ip), vehicle: other) was 3 of 6, the survivor count [5] was 1 of 6 and the survivor count (dose: 50.0 mg/kg/injection, schedule: Q01DX001 (ip), vehicle: other) was 1 of 6. The T/C (dose: 75.0 mg/kg/injection, schedule: Q01DX001 (ip), vehicle: carboxymethylcellulose (CMC)) was 133 % of control [5 of 6 alive], the survivor count (dose: 100.0 mg/kg/injection, schedule: Q01DX001 (ip), vehicle: carboxymethylcellulose (CMC)) was 3 of 6 and the survivor count (dose: 100.0 mg/kg/injection, schedule: Q01DX001 (ip), vehicle: other) was 0 of 6. For the same molecule, the survivor count (dose: 150.0 mg/kg/injection, schedule: Q01DX001 (ip), vehicle: carboxymethylcellulose (CMC)) was 2 of 6, the survivor count (dose: 200.0 mg/kg/injection, schedule: Q01DX001 (ip), vehicle: carboxymethylcellulose (CMC)) was 2 of 6 and the survivor count (dose: 200.0 mg/kg/injection, schedule: Q01DX001 (ip), vehicle: other) was 0 of 6. For the same molecule, the survivor count (dose: 300.0 mg/kg/injection, schedule: Q01DX001 (ip), vehicle: carboxymethylcellulose (CMC)) was 3 of 6.

With `COc1cc(CCO)cc(OC)c1` the survivor count [5] was 4 of 4 and the survivor count (dose: 400.0 mg/kg/injection, schedule: Q01DX001 (ip), vehicle: carboxymethylcellulose (CMC)) was 4 of 4.

In the case of `C[S+]1CCC(N)C(=O)C1` (configuration not stated), the T/C (dose: 25.0 mg/kg/injection, schedule: Q04DX002 (ip), vehicle: saline) is reported as 126 % of control and the T/C (dose: 100.0 mg/kg/injection, schedule: Q04DX002 (ip), vehicle: saline) is reported as 129 % of control.
